# From the supplement of paper PMC10849652
# Chains of the proteins cited; added tags and fusions are not shown. Lines headed by an entry give the natural chain unless they say otherwise; changes in a name come on top.
# UniProt P35611: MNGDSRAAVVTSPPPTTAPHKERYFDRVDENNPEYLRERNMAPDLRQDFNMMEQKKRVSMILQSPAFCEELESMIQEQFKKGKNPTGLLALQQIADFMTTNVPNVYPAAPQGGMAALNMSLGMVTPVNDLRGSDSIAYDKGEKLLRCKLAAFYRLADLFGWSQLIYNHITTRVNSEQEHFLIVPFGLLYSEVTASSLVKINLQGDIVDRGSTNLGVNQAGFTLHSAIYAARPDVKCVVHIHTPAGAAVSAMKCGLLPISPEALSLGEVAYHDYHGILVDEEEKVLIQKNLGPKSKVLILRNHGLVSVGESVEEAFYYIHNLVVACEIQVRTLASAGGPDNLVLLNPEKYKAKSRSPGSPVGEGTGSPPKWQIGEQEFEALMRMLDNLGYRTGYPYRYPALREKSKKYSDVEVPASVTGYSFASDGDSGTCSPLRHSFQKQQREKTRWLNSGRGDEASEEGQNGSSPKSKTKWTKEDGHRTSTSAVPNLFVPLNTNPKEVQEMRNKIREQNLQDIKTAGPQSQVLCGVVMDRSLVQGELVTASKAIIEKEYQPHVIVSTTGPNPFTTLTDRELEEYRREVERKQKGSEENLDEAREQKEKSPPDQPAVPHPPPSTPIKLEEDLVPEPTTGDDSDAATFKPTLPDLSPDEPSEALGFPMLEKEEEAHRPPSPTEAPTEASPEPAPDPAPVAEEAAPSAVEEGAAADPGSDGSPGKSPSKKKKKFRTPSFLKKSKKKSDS
# UniProt O95831, whole entry, looked up: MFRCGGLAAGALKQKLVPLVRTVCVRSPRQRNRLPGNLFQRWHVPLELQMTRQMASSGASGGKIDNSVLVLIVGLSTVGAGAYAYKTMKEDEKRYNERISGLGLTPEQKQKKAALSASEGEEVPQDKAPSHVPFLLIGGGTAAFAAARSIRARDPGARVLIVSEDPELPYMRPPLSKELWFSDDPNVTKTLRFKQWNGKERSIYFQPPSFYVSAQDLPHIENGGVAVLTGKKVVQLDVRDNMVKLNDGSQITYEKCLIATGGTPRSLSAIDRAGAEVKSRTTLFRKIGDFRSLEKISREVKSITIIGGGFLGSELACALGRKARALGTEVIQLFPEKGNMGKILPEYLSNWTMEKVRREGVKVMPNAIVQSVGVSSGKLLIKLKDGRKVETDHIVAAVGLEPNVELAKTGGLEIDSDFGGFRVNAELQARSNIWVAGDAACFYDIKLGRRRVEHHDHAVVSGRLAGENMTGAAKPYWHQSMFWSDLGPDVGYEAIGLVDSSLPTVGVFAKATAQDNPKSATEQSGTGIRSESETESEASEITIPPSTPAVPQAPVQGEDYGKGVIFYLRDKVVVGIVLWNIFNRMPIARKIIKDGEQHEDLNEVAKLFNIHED
# UniProt O43488: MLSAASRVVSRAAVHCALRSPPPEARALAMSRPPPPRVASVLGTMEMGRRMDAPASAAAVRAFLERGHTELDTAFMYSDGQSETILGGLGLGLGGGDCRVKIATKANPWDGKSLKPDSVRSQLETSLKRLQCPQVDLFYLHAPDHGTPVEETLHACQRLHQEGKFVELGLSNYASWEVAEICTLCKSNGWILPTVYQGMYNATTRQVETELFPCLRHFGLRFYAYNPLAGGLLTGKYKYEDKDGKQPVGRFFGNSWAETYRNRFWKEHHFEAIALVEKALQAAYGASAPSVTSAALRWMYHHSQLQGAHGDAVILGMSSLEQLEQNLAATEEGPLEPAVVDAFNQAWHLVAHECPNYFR
# UniProt P30520: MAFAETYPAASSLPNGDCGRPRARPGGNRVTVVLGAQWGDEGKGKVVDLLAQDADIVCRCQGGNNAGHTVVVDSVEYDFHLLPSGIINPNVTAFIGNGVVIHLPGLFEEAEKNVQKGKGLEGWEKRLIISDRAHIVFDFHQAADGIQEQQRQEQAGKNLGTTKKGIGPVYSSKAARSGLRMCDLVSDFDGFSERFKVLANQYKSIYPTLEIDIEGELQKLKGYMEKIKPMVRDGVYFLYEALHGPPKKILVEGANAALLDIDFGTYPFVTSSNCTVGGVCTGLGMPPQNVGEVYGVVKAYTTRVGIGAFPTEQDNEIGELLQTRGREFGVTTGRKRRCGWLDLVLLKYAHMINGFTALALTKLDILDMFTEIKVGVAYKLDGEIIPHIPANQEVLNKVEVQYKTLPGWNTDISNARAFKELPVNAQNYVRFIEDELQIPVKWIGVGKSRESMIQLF
# UniProt Q9H6U8: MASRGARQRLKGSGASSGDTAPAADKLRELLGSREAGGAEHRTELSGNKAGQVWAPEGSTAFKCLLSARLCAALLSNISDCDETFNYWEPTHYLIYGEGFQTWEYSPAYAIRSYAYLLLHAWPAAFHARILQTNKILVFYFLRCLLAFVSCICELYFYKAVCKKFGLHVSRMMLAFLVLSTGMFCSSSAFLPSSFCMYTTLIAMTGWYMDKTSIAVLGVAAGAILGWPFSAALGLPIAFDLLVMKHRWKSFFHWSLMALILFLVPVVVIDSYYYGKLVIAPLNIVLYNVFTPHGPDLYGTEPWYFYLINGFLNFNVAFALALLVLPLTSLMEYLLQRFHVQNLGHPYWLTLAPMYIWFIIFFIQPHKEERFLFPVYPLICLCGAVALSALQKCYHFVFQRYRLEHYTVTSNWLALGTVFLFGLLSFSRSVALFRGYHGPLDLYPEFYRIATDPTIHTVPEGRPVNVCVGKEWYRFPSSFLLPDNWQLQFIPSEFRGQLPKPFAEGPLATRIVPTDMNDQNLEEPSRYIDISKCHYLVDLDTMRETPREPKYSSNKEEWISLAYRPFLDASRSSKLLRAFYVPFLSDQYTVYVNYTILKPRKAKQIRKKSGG
# UniProt O43865, whole entry, looked up: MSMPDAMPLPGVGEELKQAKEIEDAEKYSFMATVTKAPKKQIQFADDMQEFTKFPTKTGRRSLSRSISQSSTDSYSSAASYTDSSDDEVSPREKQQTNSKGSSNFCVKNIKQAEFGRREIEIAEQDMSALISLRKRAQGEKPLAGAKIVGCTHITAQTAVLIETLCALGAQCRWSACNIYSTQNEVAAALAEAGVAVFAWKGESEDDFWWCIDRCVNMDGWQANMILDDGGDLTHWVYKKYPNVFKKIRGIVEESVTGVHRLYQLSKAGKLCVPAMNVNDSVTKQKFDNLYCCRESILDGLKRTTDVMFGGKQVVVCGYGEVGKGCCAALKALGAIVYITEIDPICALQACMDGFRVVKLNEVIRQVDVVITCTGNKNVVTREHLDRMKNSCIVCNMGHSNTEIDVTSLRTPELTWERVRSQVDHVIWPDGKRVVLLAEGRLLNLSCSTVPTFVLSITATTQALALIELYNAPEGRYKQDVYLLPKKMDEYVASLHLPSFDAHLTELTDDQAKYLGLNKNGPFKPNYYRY
# UniProt P55196: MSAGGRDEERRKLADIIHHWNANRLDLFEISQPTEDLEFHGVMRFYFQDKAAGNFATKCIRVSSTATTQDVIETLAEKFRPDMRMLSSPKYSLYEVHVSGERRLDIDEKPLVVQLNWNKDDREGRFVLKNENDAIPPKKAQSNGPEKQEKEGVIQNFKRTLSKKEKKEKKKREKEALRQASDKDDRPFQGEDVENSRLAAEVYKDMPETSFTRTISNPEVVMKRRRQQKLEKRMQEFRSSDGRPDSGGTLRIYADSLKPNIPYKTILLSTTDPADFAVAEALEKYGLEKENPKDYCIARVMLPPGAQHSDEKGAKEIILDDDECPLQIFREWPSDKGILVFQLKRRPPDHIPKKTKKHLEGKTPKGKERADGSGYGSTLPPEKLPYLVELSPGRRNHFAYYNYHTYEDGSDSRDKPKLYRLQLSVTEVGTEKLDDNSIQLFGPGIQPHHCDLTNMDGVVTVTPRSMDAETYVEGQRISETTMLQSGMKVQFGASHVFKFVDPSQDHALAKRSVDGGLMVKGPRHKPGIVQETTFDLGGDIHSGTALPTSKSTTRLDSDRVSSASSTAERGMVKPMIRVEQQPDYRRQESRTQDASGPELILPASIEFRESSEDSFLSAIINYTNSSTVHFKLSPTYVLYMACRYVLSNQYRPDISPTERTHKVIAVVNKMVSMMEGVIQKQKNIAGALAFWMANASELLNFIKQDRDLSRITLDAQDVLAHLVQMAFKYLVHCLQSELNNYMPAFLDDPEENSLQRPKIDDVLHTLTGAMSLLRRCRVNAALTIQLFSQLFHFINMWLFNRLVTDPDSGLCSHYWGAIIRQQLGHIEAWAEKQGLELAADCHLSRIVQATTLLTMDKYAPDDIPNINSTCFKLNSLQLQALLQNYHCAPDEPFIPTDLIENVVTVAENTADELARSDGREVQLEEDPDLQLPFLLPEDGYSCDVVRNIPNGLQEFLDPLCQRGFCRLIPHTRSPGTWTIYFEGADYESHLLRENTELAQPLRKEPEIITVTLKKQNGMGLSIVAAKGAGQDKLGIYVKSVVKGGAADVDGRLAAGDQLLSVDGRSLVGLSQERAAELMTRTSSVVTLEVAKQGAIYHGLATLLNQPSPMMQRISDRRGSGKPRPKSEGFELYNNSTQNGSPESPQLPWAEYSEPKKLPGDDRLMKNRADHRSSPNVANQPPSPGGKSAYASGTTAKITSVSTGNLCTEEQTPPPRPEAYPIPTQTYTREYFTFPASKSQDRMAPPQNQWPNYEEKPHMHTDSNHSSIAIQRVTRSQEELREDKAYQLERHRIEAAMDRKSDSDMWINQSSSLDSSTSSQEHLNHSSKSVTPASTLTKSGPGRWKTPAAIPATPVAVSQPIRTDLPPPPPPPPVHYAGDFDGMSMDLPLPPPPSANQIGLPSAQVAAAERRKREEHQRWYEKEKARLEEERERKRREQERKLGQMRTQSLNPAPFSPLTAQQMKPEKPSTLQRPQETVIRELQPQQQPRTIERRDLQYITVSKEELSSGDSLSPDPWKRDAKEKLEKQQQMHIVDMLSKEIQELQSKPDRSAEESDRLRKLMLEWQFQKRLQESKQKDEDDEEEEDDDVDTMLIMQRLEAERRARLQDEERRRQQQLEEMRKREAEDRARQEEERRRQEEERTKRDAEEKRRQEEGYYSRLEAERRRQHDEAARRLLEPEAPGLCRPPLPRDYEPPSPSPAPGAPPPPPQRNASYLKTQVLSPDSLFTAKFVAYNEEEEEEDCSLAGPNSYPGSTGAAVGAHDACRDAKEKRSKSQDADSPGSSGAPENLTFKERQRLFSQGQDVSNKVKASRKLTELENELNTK
# UniProt Q13686: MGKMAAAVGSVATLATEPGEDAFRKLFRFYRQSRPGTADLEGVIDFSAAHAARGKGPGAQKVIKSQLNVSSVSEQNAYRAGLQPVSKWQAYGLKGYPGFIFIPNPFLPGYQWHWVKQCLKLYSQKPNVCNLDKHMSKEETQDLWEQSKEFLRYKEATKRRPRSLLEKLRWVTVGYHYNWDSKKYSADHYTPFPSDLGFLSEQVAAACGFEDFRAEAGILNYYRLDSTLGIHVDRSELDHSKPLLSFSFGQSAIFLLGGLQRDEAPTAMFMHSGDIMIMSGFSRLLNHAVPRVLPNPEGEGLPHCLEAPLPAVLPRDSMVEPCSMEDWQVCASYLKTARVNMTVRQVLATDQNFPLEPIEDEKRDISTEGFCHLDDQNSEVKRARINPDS
# UniProt Q9NX46: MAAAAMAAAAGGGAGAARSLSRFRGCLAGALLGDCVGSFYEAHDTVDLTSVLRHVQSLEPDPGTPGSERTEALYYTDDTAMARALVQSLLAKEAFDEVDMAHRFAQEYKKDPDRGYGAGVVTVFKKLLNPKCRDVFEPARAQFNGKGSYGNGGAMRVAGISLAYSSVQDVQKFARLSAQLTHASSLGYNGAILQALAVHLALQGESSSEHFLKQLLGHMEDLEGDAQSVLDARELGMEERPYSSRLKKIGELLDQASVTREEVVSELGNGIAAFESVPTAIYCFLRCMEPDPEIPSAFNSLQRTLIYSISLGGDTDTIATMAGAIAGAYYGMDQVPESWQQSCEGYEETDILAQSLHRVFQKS
# UniProt O43823: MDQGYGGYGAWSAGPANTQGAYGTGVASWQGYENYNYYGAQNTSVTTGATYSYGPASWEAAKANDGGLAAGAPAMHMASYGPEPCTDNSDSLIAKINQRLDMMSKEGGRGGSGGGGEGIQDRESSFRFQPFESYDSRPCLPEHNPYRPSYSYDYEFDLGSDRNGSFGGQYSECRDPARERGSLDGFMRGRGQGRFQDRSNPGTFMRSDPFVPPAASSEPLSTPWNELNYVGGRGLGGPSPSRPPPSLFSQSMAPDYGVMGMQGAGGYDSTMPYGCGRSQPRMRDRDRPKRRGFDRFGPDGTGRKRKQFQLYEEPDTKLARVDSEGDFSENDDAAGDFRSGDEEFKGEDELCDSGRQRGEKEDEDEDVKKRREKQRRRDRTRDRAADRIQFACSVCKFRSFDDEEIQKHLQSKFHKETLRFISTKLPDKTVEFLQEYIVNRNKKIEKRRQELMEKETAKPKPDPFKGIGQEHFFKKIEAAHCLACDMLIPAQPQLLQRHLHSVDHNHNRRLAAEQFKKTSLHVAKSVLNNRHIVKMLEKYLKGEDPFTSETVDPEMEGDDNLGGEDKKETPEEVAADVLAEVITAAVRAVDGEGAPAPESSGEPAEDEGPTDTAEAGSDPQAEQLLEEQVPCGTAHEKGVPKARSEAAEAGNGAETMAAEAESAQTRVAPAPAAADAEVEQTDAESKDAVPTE
# The list shows a part of the results.
# Tests used:
# Experiment in all cases: log2 fold change, soluble protein after heating vs DMSO (PISA); higher = thermal stabilisation; K562 cells, 10 uM, 30 min; active = over 0.2 and 3.5 SD of the protein, either way, in both replicates (recomputed)
# [1] = compound: Cc1ccc(NC(=O)c2ccc(CN3CC[C@H](N(C)C)C3)c(C(F)(F)F)c2)cc1Nc1nccc(-c2cncnc2)n1 [bafetinib]
# How it was run: (§1)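 For each measurement, 10 μM compound was applied for 30 min to K562 cells at 2×10^6 cells/mL. Aliquots were heated for 3 min across 48°C-58°C, pooled, and extracted in PBS with 0.5% NP-40 at 4°C; the supernatant after 21,000xg for 90 min was soluble protein. This was quantified by TMTpro 16plex LC-MS/MS with channel sums equalised, and thermal stability was reported relative to control samples from duplicates, on a log2 fold-change scale.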
# [2] = compound: Cc1cccc(CC(=O)N2CCc3c2ccc(-c2cn(C)c4ncnc(N)c24)c3F)n1
# How it was run: as §1
# [3] = compound: Cc1cn(-c2cc(NC(=O)c3ccc(C)c(Nc4nccc(-c5cccnc5)n4)c3)cc(C(F)(F)F)c2)cn1 [nilotinib]
# How it was run: as §1
# [4] = compound: Cc1nc(Nc2n[nH]c3c2CN(C(=O)N[C@H](CN(C)C)c2ccccc2)C3(C)C)c2sccc2n1
# How it was run: as §1
# [5] = compound: Cc1nc(Nc2ncc(C(=O)Nc3c(C)cccc3Cl)s2)cc(N2CCN(CCO)CC2)n1 [dasatinib]
# How it was run: as §1
# [6] = compound: Cc1ncc(-c2ccnc(Nc3ccc(S(C)(=O)=O)cc3)n2)n1C(C)C
# How it was run: as §1
# [7] = compound: Cn1cc(-c2ccc3c(c2)CCN3C(=O)Cc2cccc(C(F)(F)F)c2)c2c(N)ncnc21
# How it was run: as §1
# [8] = compound: Cn1cc(-c2ccc3nnc(C(F)(F)c4ccc5ncccc5c4)n3n2)cn1
# How it was run: as §1
# [9] = compound: Cn1cncc1[C@@](N)(c1ccc(Cl)cc1)c1ccc2c(c1)c(-c1cccc(Cl)c1)cc(=O)n2C [tipifarnib]
# How it was run: as §1
# [10] = compound: FC(F)(F)c1ccc(/C=C/c2nc(COc3ccc(CCCCn4ccnn4)cc3)co2)cc1 [mubritinib]
# How it was run: as §1
Target,log2 fold change [1],log2 fold change [2],log2 fold change [3],log2 fold change [4],log2 fold change [5],log2 fold change [6],log2 fold change [7],log2 fold change [8],log2 fold change [9],log2 fold change [10]
AGTRAP (UniProt Q6RW13),inactive: -0.08,inactive: 0.005,inactive: 0.103,inactive: 0.045,inactive: 0.03,inactive: -0.019,inactive: -0.029,inactive: -0.007,inactive: 0.094,inactive: -0.027
ALDH1A2 (UniProt O94788),inactive: 0.017,inactive: -0.003,inactive: 0.058,inactive: 0,inactive: -0.002,inactive: 0.004,inactive: 0.048,inactive: 0.052,inactive: -0.019,inactive: 0.059
AEBP2 (UniProt Q6ZN18),inactive: -0.084,,,,,,,,,
AIMP2 (UniProt Q13155),inactive: 0.118,inactive: -0.04,inactive: -0.158,inactive: 0.021,inactive: 0.073,inactive: -0.034,inactive: -0.162,inactive: -0.17,inactive: -0.04,inactive: -0.162
AGPAT1 (UniProt Q99943),inactive: -0.036,inactive: 0.012,inactive: -0.035,inactive: 0.016,inactive: -0.033,inactive: -0.063,inactive: 0.033,inactive: -0.006,inactive: 0.027,inactive: 0.014
ANAPC1 (UniProt Q9H1A4),inactive: 0.005,inactive: -0.022,inactive: -0.009,inactive: -0.017,inactive: 0,inactive: 0.014,inactive: -0.073,inactive: -0.038,inactive: 0.02,inactive: 0.006
ADD1 isoform 3 (UniProt P35611),inactive: -0.018,inactive: 0.068,inactive: 0.014,inactive: -0.02,inactive: 0.041,inactive: -0.093,inactive: 0.009,inactive: 0.014,inactive: 0.015,inactive: 0.033
AFG3L2 (UniProt Q9Y4W6),inactive: -0.072,inactive: 0,inactive: -0.04,inactive: -0.027,inactive: -0.072,inactive: -0.017,inactive: -0.008,inactive: 0.036,inactive: -0.004,inactive: -0.119
ALDH1A1 (UniProt P00352),inactive: -0.013,inactive: -0.037,inactive: 0.034,inactive: -0.009,inactive: 0.031,inactive: 0.007,inactive: 0.044,inactive: 0.011,inactive: -0.044,inactive: 0.049
AGRN (UniProt O00468),inactive: 0.006,inactive: 0.001,inactive: -0.034,inactive: -0.035,inactive: 0.355,inactive: -0.086,inactive: 0.03,inactive: 0.162,inactive: 0.165,inactive: -0.079
AHSA1 (UniProt O95433),inactive: -0.059,inactive: 0.013,inactive: -0.052,inactive: -0.035,inactive: -0.096,inactive: -0.018,inactive: 0.065,inactive: 0.009,inactive: -0.056,inactive: 0.038
AMOTL1 (UniProt Q8IY63),inactive: 0.162,,,,,,,,,
ADPRM (UniProt Q3LIE5),inactive: -0.12,,,,,,,,,
AGL (UniProt P35573),inactive: 0.149,inactive: -0.018,inactive: 0.293,inactive: -0.093,inactive: 0,inactive: -0.161,inactive: -0.119,inactive: -0.138,inactive: 0.199,inactive: 0.037
AGO3 (UniProt Q9H9G7),inactive: 0.008,inactive: -0.049,inactive: 0.087,inactive: 0.015,inactive: -0.093,inactive: -0.058,inactive: -0.337,inactive: 0.011,inactive: -0.014,inactive: -0.196
ALAD isoform 2 (UniProt P13716),inactive: -0.009,inactive: -0.006,inactive: -0.032,inactive: 0.077,inactive: 0.031,inactive: 0.005,inactive: -0.007,inactive: -0.027,inactive: 0.07,inactive: -0.013

# Only log2 fold change [9], log2 fold change [10] and log2 fold change [1] (2 entries from above):
Target	log2 fold change [9]	log2 fold change [10]	log2 fold change [1]
AEBP2 (UniProt Q6ZN18)			inactive: -0.084
ADD1 isoform 3 (UniProt P35611)	inactive: 0.015	inactive: 0.033	inactive: -0.018

# Whole records from above. Values in the order: log2 fold change [1]	log2 fold change [2]	log2 fold change [3]	log2 fold change [4]	log2 fold change [5]	log2 fold change [6]	log2 fold change [7]	log2 fold change [8]	log2 fold change [9]	log2 fold change [10]
# AGPAT1 (UniProt Q99943) is listed as inactive: -0.036	inactive: 0.012	inactive: -0.035	inactive: 0.016	inactive: -0.033	inactive: -0.063	inactive: 0.033	inactive: -0.006	inactive: 0.027	inactive: 0.014
# ALDH1A2 (UniProt O94788) is listed as inactive: 0.017	inactive: -0.003	inactive: 0.058	inactive: 0	inactive: -0.002	inactive: 0.004	inactive: 0.048	inactive: 0.052	inactive: -0.019	inactive: 0.059

# Continuation:

Target,log2 fold change [1],log2 fold change [2],log2 fold change [3],log2 fold change [4],log2 fold change [5],log2 fold change [6],log2 fold change [7],log2 fold change [8],log2 fold change [9],log2 fold change [10]
AIFM1 (UniProt O95831),inactive: -0.039,inactive: -0.038,inactive: 0.02,inactive: -0.002,inactive: 0.029,inactive: -0.012,inactive: 0.026,inactive: 0.031,inactive: -0.02,inactive: 0.023
ALDOA isoform 2 (UniProt P04075),inactive: 0.023,inactive: -0.018,inactive: -0.013,inactive: 0.025,inactive: 0.041,inactive: -0.004,inactive: -0.002,inactive: -0.039,inactive: -0.019,inactive: 0.02
AKR7A2 (UniProt O43488),inactive: -0.01,inactive: -0.022,inactive: 0.037,inactive: 0.007,inactive: -0.049,inactive: -0.025,inactive: 0.061,inactive: 0.022,inactive: -0.111,inactive: -0.039
ADSS2 (UniProt P30520),inactive: 0.002,inactive: 0.019,inactive: 0.053,inactive: -0.001,inactive: 0.017,inactive: -0.029,inactive: 0.031,inactive: 0.029,inactive: -0.024,inactive: 0.145
ALG10B (UniProt Q5I7T1),inactive: -0.066,inactive: 0.022,inactive: -0.033,inactive: -0.078,inactive: -0.052,inactive: 0.074,inactive: 0.077,inactive: -0.076,inactive: 0.08,inactive: -0.017
ALDH2 (UniProt P05091),inactive: 0.009,inactive: -0.02,inactive: 0.006,inactive: -0.016,inactive: -0.034,inactive: 0.019,inactive: 0.072,inactive: 0.059,inactive: -0.005,inactive: 0.07
ALG9 isoform 3 (UniProt Q9H6U8),inactive: -0.049,inactive: -0.018,inactive: 0.074,inactive: 0,inactive: 0.019,inactive: -0.035,inactive: -0.01,inactive: -0.035,inactive: 0.094,inactive: -0.02
AFP (UniProt P02771),inactive: -0.063,inactive: -0.013,inactive: 0.064,inactive: 0.019,inactive: 0.111,inactive: 0.584,inactive: 0.179,inactive: -0.138,inactive: -0.027,inactive: -0.448
AHCYL1 (UniProt O43865),inactive: -0.009,inactive: -0.135,inactive: 0.006,inactive: 0.029,inactive: 0.005,inactive: 0.116,inactive: 0.041,inactive: 0.041,inactive: -0.014,inactive: -0.055
AFDN isoform 5 (UniProt P55196),inactive: -0.012,inactive: 0.035,inactive: -0.06,inactive: -0.135,inactive: -0.16,inactive: -0.06,inactive: 0.044,inactive: -0.008,inactive: -0.045,inactive: 0.054
ALG3 (UniProt Q92685),inactive: -0.047,inactive: 0.075,inactive: 0.002,inactive: 0.021,inactive: 0.031,inactive: 0.017,inactive: -0.065,inactive: 0.013,inactive: -0.062,inactive: 0.006
ALKBH1 (UniProt Q13686),inactive: -0.024,inactive: -0.175,inactive: 0.203,inactive: -0.26,inactive: -0.068,inactive: -0.051,inactive: -0.033,inactive: -0.204,inactive: 0.184,
AIFM2 (UniProt Q9BRQ8),inactive: 0.008,inactive: -0.129,inactive: 0.067,inactive: 0.023,inactive: 0.046,inactive: -0.043,inactive: 0.081,inactive: 0.032,inactive: 0.199,inactive: 0.025
ADPRHL2 (UniProt Q9NX46),inactive: 0.201,inactive: 0.029,inactive: 0.013,inactive: 0.164,inactive: -0.034,inactive: 0.124,inactive: 0.082,inactive: 0.052,inactive: -0.159,active: 0.349
AGO2 (UniProt Q9UKV8),inactive: 0.011,inactive: -0.03,inactive: 0.03,inactive: 0.066,inactive: 0.075,inactive: 0.079,inactive: -0.064,inactive: 0.024,inactive: 0.069,inactive: -0.022
AKAP8 (UniProt O43823),inactive: -0.051,inactive: -0.008,inactive: -0.001,inactive: -0.044,inactive: -0.155,inactive: -0.042,inactive: -0.007,inactive: -0.049,inactive: 0.022,inactive: 0.028
